Data taken from PubChem BioAssay AID1347423 (Functional Genomics Laboratory (NCATS/FGL), 2020).
The whole screen tested about 52,000 sequences, of which about 210 (0.4%) were called active.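 Rule for the calls: active = gene whose silencing raises cell survival under the drug, median off-target-corrected z-score across its silencing RNAs 2 or more; inactive = the rest.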 This is one part of the list.

Experiment: Resistance to Poly (ADP-Ribose) Polymerase inhibitor: Gene Identification via Genome-wide siRNA Screen
Settings: mouse BRCA2 R2336H ES cells, olaparib, CellTiter-Glo viability; active compounds read high
Summary of the method: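 Genome-wide siRNA screen (3 siRNAs/gene, 20 nM) in mouse ES cells carrying hypomorphic BRCA2 R2336H; olaparib 500 nM added 48 h post-transfection, CellTiter-Glo viability 72 h later. Normalized to plate-median negative control; MAD z-scores, gene median, seed-adjusted.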

| Sequence | z-score |
| --- | --- |
| GGUGGUGUUUGUCAGCAAATT against Khk | inactive: -0.404 |
| GUUACCUCGUGGAAAGCAUTT against V1ra5 | inactive: -0.567 |
| GGUAGUCAAGUCGAAAGUATT against 4932411G06Rik | inactive: -0.38 |
| GGUGGAAGCACUCAAUAAGTT against Pik3cb | inactive: 0.269 |
| UAUUCUAUCCGAACACCUUTT against 4930549O06 | inactive: 1.45 |
| GGAGGAUGCCAAAGAGAACTT against A030007D23Rik | inactive: -0.21 |
| GGAACGAUGGAAAUUGUAUTT against Rap1gds1 | inactive: -0.352 |
| GGUGUUGAAAUAAUUUCUCTT against 1700048E23Rik | inactive: -0.524 |
| CGGUCUGAUUAAACAAAUUTT against Dpysl4 | inactive: -0.29 |
| GGAACUGCUGUGCAGUUUUTT against 1810059G22Rik | inactive: 0.909 |
| GUCAUGAGAUUGAAUACAATT against Olfr569 | inactive: -0.572 |
| GCAGUUAUGUUAUAGCUGCTT against 2310061F22Rik | inactive: 0.874 |
| CGAAUACUUUGGAAAAUUCTT against Tfb2m | inactive: 0.094 |
| GGAAACACCUUCUUCAGCATT against C130060K24Rik | inactive: -1.54 |
| GCAAUGCAAAAGAUGCCCUTT against Chchd7 | inactive: -0.644 |
| CCCAACUCAAGCCUCGAAATT against Scpep1 | inactive: 0.571 |
| CCUCUCCCUACUGUGAAAUTT against Poldip2 | inactive: 0.0975 |
| GGAAAAAUGGGAGUUUGAATT against 4932423M01Rik | inactive: -0.322 |
| GGUUCAAUUCACAGAGCGCTT against BC028768 | inactive: -0.373 |
| GGUUGUGAGUCAGUCUAGUTT against Tia1 | inactive: -0.904 |
| GGAGUCUUCUGGAUAAACATT against 1110028E10Rik | inactive: -1.06 |
| GGCCAAGAGUAAACAGAAATT against Traip | inactive: -0.521 |
| GGGCUGGUCAUUUACUAAGTT against Cdh22 | inactive: 0.524 |
| GCUCAAGUGCGAUUGUAAGTT against 2810441C07Rik | inactive: -0.0952 |
| GCCAGACCAAACCCGAAUUTT against Fbl | inactive: -2.12 |
| CCAGGUUUUUUAACAGAGATT against Hipk1 | inactive: -0.304 |

| Sequence | z-score |
| --- | --- |
| CGUGUGGACUUGACAAGAUTT against Cklf | inactive: -1.3 |
| GGAAUUCUGGGAACAAAAGTT against Mina | inactive: -0.546 |
| GCUCUCACCCAUGUGACGATT against A930021H16Rik | inactive: 0.907 |
| CCACUUCUACCAUCAUUGATT against AU040320 | inactive: 0.417 |
| GGAUAUUUGUCAAUGGACGTT against Glrx2 | inactive: -1.23 |
| GGUGCCUUGGGAAAAAGGATT against 2610511O17Rik | inactive: -1.13 |
| GCCAGUUAUGAGCAACACCTT against D11Ertd18e | inactive: 2.17 |
| GGACAAAGCUAUGUCUUAATT against Treh | inactive: -1.1 |
| GGAUCUUUUCCAAAGAAAUTT against Dusp10 | inactive: 0.204 |
| CUUGUGGGUCUAUGGACGGTT against Olfr1348 | inactive: 1.45 |
| GGGAAAUUAAAUCUGUUCATT against 4931419K03Rik | inactive: -1.24 |
| GGACAAAGACAAAAAGGAUTT against Pole3 | inactive: -2.17 |
| GGCAAUUGUCCACAAACUCTT against Smyd5 | inactive: 0.256 |
| GGAAUCAGAGAAAUUGUAATT against Ctsq | inactive: 0.0545 |
| GGAAAGAAACCGUAUAAAUTT against Zfp93 | inactive: 0.868 |
| GGCAUGAUAAGCUUCGAUGTT against Pmm1 | inactive: 1.46 |
| CGGCAAACUCAAGAAGCAGTT against BC027663 | inactive: -2.19 |
| GGUUACUUUGGGAAAGUUGTT against Rpl27a | inactive: -3.37 |
| CCCACUUGACUGAAAAGAUTT against Nmnat2 | inactive: -0.869 |
| GGGCAGCUUUGAAACACUCTT against Clspn | inactive: -1.54 |
| GCAUGCGUUUUUCCGGUAUTT against Prkcb1 | inactive: 0.219 |
| GGCACCUAAAUUCUUGAAUTT against Hspb6 | inactive: -0.361 |
| GCGAAAUUCUAUCCAGCCATT against Trp53 | inactive: -1.47 |
| GGAGUGGUACACAGACAUGTT against Srd5a2 | inactive: -0.161 |
| GGAGAUUGAGCUGAAUAUUTT against 1700036D21Rik | inactive: -2.05 |
| GCUAACCAUGUAAAAGCUATT against Pde3a | inactive: 1.99 |

| Sequence | z-score |
| --- | --- |
| GGACUUCAGCAAUUCCUGUTT against 4930555I21Rik | inactive: 1.06 |
| UGGAAGCCUUAUGCCGUCUTT against Gpr31c | inactive: -0.334 |
| GGUCAACAUCGAUGAGCUATT against Ppp1r14a | inactive: -0.707 |
| GCGGACCAUCGAGAAGUUUTT against Eef1a2 | inactive: -1.46 |
| GGAAGUCAUGAAGAACAGATT against Nup50 | inactive: 0.384 |
| CCAUUAUGGACAAUAAGAGTT against Rnf8 | inactive: 0.373 |
| GGAAACACCAAGAUUCCAGTT against Sprr3 | inactive: 0.226 |
| GCAGGUACUAUGGUUAAGCTT against Dnd1 | inactive: 0.129 |
| CGGAUCAUUUACCCUUAUGTT against Jarid1d | inactive: 0.0684 |
| GGUCUUGACACUUCAAAGATT against S3-12 | inactive: -0.0911 |
| GGCGAGAAGAUCCUUAUCCTT against Wdr3 | inactive: -0.564 |
| CCUGAUCAACAAACCGGAUTT against Rfxank | inactive: 0.649 |
| GGACAUCACCAUGACAGACTT against Pnmt | inactive: -1.09 |
| GGCCAAGCUGAUCAAUAUATT against Oprd1 | inactive: -0.0592 |
| GGCCAGAUCUUCUAAAUUCTT against Lect2 | inactive: 2.05 |
| GGACCAGACAGGAAGUAUUTT against 9130017C17Rik | inactive: -0.819 |
| GGAAGUCCUUGCAUUCCUCTT against D630005C06Rik | inactive: 0.504 |
| GCUACUAAGCACCUAGAGATT against Fxr2h | inactive: -0.748 |
| GCGUGGACGAAUGGAAACATT against Mapk13 | inactive: -1.07 |
| GGUGUUAUGCCUAUGUAUGTT against Hlxb9 | inactive: 0.248 |
| GGCUACGAAACCAGAAGAUTT against Shd | inactive: 0.117 |
| GGAUAGGUGGCUGAUAGUGTT against Hsd3b4 | inactive: 0.0313 |
| GGAGACUCGGCUUCUUCAATT against A430041B07 | inactive: 1.07 |
| GGAGCUGGAGACUAAAGCUTT against Slc29a2 | inactive: 0.193 |
| CCAGUAUUCGCACAUCUCGTT against A030009A06Rik | inactive: -0.6 |
| GGAGAGCGGGUCAUCACAUTT against Efna4 | inactive: 0.369 |

| Sequence | z-score |
| --- | --- |
| GCAAUACUUUGCAUGCAUUTT against 9530002B09Rik | inactive: -0.945 |
| AUCUCAGCGUAGAACGAAUTT against MGC5739 | inactive: 0.396 |
| GGCAUGAAUCAGUCUAUGGTT against Olfr1308 | inactive: -1.48 |
| GGUUAACAUUUUCAGUCAUTT against Itga2 | inactive: 1.17 |
| GGACGACUUUGAUUUCAACTT against Stat3 | inactive: 1.64 |
| CCUAGUCUAGCUGACUUGCTT against Spinlw1 | inactive: 2.43 |
| CCACCAGACUCAUAUUAACTT against LOC433501 | inactive: -0.496 |
| GCUUUUGCUACAAGUGUAUTT against C80879 | inactive: -2.32 |
| GAGAAUCCUCACAUAAUCATT against Tnk1 | inactive: 1.3 |
| GCUUCCUGUUCGACGUAUCTT against Gdf7 | inactive: 0.583 |
| CGAACACAUAUAGAUCAUCTT against 4930417M19Rik | inactive: -1.08 |
| GGAAAUGUGAAAGCUCUGUTT against B230396O12Rik | inactive: -1.37 |
| GGUACACCUGGUAGAAUUGTT against Ppp1r16a | inactive: 0.914 |
| GGUCAUUCCGGGAUUUUUUTT against 5430411K16Rik | inactive: -0.467 |
| GGGAUGAGUAUGCUUAUGGTT against Rgpr | inactive: 0.176 |
| GGCUUCUUUUUGUUCUCUGTT against Apex2 | inactive: 1.05 |
| GGUGGCCAAGGAAAAUGGUTT against Pcx | inactive: -1.02 |
| CCUGCACUGGGAAAUAUGGTT against Polr2g | inactive: 0.0195 |
| GGUUCAAGGCAACACUGUGTT against 0710001P18Rik | inactive: -0.172 |
| GGAGGAUUGUCCACAUGGATT against Ccl27 | inactive: -1.06 |
| GGUCAUCCUUUCUGAGUUGTT against Stard3 | inactive: 1.85 |
| GGAUGGCUUUUUAAUGAAUTT against Chst5 | inactive: 0.703 |
| GGCCGCGUGUAAAAAGGUUTT against Gsg2 | inactive: -0.0887 |
| GCAUUUCGAGCUGAUGGUGTT against Slc36a1 | inactive: 0.803 |
| GGAAUUUGUCAACCGGACCTT against Siat7f | inactive: 0.899 |

Individual results from above:
Entry of GCUCAAGUGCGAUUGUAAGTT against 2810441C07Rik under z-score: inactive: -0.0952
Entry of GCGGACCAUCGAGAAGUUUTT against Eef1a2 under z-score: inactive: -1.46
Entry of GCCAGUUAUGAGCAACACCTT against D11Ertd18e under z-score: inactive: 2.17
Entry of GGAGAUUGAGCUGAAUAUUTT against 1700036D21Rik under z-score: inactive: -2.05
Entry of GGCCAAGCUGAUCAAUAUATT against Oprd1 under z-score: inactive: -0.0592
Entry of GGGCAGCUUUGAAACACUCTT against Clspn under z-score: inactive: -1.54
